{"source": "patent US4481194A", "about": "“Des-proline-des-glycine vasopressin antagonists” (SmithKline Beckman Corporation, priority 1984, dated 1984)", "system": "hydropenic rat", "assay": "Hydropenic rat screen (anti-ADH activity in vivo)", "settings": "estimated dose of peptide delivered ip which reduces Uosm from hydropenic levels to 300 mOsmoles/kg H2O", "description": "Antagonistic activity toward the natural antidiuretic hormone (anti-ADH activity) is determined, in vitro, in the medullary tissue of hog or human kidneys and, in vivo, in the hydropenic rat. The in vitro assay procedures for vasopressin stimulated adenylate cyclase activation or vasopression binding activity are described by F. Stassen et al., J. Pharmacology and Experimental Therapeutics, 223, 50-54 (1982).\nThe assay for anti-ADH activity is the hydropenic rat protocol is described below:\nFood and water are removed from male rats approximately 18 hours prior to testing. Animals are housed 4 per metabolism cage. At 0 hour, the test compound is administered intraperitoneally to the test group and an equivalent volume of vehicle is administered to both control groups (fasted and non-fasted). Urine volume and osmolality are measured every hour for 4 hours. Test values are recorded as ml of urine excreted (cumulative), mEq/rat electrolyte excreted, mg/rat urea excreted, and osmolality in milli-Osmoles/kg H2 O. A tolerance test is used to determine significance. ED300 is defined as the dose of compound (μg/kg) required to lower urine osmolality to 300 m-Osmoles/kg.", "note": "At least one peptide structure holds a part that was inferred or is arguable (an end, a ring closure or a residue). Numbered stars: 1 amine (or outer) side, 2 acyl side, 3 side chain; on linkers, the order of the positions; unused ones are H or OH. Bridge positions count the residues as written; N and C are the ends. Square brackets hold non-standard residues; d marks the D form. Peptide text beside a SMILES is read from it. X1 = O=C(CC1(S[*:2])CCCCC1)[*:1]", "data": [{"smiles": "CCOc1ccc(C[C@H]2NC(=O)CC3(CCCCC3)SSC[C@@H](C(=O)N[C@@H](CCCNC(=N)N)C(N)=O)NC(=O)[C@H](CC(N)=O)NC(=O)[C@H](C(C)C)NC(=O)[C@H](Cc3ccccc3)NC2=O)cc1", "note": "[A] ([dY](Et)FVNCR-NH2; linker N-5 via X1)", "values": [{"measurement": "ED300", "result": 0.0746, "unit": "mg/kg"}]}]}
